Counter-ions that a name gives are not always drawn. This is one part of the list. The calls rarely recur for the same compound in another form.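 Kinases were expressed as nanoluciferase fusions in K562 cells and luminescence was read every 4 h between 2 and 18 h as percent of control, DMSO set to 100% and a positive control to 0%. A time point counts as decreased when the signal drops significantly (2 sigma). The hit call is the authors' own, does not follow from the count of time points alone, and its rule is not shown.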
Legend:
Assay in all cases: number of time points (of 5) at which kinase-Nluc abundance scored as decreased, DMSO-normalised (count); higher = more persistent destabilization
Conditions in all cases: K562; 2-18 h
ALK = ALK (UniProt Q9UM73)
ARAF = ARAF (UniProt P10398)
AURKA = AURKA (UniProt O14965)
AURKB = AURKB (UniProt Q96GD4)
AURKC = AURKC (UniProt Q9UQB9)
BLK = BLK (UniProt P51451)
BMX = BMX (UniProt P51813)
BRAF = BRAF (UniProt P15056)
BRAF_V600E = system: BRAF_V600E
BTK = BTK (UniProt Q06187)

Chains of the proteins cited; added tags and fusions are not shown. Lines headed by an entry give the natural chain unless they say otherwise; changes in a name come on top.
UniProt Q9UM73: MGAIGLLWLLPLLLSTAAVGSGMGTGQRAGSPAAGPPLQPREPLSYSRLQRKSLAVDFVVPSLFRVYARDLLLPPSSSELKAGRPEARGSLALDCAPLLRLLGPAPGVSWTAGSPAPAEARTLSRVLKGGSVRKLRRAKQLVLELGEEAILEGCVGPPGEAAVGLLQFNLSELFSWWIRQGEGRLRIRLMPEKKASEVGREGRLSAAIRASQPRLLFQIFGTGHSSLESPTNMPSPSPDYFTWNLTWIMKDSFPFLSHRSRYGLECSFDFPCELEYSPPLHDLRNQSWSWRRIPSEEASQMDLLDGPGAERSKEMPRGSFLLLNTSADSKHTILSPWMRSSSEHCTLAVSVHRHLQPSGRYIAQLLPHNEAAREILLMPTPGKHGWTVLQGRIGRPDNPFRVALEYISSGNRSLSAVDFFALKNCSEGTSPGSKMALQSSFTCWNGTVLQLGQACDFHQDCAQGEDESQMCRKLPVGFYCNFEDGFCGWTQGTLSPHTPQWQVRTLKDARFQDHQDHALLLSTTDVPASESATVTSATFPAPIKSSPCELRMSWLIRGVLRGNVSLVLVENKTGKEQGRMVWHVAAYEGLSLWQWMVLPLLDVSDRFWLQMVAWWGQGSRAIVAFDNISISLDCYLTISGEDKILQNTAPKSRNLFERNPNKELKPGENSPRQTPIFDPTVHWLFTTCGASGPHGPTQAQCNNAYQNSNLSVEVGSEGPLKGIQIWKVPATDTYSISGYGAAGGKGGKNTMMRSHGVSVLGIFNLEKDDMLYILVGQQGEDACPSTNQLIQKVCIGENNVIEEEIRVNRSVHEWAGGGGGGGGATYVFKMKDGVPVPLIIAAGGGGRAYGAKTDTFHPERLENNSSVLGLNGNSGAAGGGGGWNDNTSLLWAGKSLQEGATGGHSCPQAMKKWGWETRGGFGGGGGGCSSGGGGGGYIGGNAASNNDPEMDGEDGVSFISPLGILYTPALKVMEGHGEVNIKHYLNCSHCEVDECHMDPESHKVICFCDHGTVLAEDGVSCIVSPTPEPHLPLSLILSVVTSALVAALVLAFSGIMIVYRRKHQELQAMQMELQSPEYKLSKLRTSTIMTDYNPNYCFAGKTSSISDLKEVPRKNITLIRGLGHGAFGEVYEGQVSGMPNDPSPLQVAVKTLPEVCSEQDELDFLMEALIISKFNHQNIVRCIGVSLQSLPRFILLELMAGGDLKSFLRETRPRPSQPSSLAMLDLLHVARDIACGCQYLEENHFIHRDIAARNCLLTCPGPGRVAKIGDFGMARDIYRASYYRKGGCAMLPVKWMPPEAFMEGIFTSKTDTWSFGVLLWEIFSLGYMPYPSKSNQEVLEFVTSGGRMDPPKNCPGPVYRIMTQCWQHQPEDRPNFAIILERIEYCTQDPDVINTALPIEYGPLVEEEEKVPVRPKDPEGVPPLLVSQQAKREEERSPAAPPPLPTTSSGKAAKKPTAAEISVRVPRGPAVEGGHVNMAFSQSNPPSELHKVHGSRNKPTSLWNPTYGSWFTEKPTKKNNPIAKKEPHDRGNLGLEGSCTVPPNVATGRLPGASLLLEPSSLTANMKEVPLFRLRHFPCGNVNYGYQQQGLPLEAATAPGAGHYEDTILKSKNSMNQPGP
UniProt P10398: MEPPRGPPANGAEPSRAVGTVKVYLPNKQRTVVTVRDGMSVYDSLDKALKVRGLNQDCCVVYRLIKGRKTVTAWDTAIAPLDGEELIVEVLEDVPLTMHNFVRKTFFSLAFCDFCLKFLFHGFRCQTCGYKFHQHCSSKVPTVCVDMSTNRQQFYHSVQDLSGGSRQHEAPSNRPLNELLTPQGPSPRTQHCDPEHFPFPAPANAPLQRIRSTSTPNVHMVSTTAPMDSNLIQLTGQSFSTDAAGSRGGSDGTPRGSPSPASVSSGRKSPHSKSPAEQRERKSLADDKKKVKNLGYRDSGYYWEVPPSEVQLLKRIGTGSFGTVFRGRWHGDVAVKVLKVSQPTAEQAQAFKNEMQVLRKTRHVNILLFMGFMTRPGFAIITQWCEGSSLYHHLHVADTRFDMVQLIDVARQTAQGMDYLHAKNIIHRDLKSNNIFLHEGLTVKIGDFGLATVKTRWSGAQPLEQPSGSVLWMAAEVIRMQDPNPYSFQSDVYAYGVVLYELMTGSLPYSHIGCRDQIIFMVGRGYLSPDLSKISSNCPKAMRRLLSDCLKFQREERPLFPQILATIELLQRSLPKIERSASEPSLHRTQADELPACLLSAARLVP
UniProt O14965: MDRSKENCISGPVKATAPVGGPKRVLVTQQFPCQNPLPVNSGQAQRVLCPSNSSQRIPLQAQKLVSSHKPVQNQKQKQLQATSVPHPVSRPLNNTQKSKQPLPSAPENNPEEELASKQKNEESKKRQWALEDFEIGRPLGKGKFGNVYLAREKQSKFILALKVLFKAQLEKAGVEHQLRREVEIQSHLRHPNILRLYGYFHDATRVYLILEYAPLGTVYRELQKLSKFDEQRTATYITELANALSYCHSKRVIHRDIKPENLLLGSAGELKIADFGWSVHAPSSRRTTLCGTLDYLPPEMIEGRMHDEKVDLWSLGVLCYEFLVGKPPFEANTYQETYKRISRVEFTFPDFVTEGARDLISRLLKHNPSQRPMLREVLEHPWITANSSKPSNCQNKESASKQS
UniProt Q96GD4, whole entry: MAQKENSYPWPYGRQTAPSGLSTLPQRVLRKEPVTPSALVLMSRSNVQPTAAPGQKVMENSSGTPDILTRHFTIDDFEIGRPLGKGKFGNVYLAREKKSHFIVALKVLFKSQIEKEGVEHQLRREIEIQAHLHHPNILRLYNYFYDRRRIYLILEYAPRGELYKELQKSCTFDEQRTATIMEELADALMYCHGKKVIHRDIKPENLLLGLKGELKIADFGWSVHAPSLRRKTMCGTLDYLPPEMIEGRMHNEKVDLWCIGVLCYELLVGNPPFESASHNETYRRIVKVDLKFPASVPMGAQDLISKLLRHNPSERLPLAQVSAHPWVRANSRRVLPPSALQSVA
UniProt Q9UQB9: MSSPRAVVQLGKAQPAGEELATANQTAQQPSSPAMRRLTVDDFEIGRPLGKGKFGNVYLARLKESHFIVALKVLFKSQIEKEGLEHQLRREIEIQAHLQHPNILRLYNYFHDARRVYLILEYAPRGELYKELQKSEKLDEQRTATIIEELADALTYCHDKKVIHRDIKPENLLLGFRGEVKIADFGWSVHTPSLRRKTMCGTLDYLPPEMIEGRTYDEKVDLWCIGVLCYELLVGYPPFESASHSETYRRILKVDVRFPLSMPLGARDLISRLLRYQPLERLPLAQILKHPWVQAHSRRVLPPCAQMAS
UniProt P51451: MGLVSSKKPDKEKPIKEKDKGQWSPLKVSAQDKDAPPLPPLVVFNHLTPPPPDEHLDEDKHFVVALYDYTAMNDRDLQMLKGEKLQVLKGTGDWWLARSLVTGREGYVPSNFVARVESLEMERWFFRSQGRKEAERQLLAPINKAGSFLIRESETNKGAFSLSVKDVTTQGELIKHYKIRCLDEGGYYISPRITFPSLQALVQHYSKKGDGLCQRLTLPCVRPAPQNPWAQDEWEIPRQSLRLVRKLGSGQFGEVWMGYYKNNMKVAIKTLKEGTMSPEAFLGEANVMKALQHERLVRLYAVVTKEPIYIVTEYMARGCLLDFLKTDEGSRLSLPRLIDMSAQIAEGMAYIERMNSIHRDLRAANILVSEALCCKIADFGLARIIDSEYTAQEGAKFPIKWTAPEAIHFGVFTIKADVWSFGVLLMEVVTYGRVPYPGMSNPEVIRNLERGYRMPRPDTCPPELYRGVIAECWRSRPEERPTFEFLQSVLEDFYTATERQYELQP
UniProt P51813: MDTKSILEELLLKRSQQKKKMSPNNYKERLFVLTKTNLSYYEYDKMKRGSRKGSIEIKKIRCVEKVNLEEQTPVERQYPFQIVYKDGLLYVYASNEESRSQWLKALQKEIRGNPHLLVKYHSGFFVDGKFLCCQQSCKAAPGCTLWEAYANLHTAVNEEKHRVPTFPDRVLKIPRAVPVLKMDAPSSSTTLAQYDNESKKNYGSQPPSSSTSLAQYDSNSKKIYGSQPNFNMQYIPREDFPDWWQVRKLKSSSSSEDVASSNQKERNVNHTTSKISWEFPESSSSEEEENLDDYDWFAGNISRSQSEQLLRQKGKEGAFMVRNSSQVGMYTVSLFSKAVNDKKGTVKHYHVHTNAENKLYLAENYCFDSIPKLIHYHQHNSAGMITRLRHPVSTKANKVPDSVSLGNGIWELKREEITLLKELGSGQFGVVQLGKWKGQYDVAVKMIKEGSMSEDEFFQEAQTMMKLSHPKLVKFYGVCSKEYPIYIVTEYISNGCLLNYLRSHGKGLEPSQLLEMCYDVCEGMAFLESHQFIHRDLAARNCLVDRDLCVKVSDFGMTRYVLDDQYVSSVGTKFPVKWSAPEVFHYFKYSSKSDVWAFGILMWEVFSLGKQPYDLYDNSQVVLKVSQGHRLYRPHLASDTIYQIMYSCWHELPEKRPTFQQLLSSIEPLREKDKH
UniProt P15056, whole entry, looked up: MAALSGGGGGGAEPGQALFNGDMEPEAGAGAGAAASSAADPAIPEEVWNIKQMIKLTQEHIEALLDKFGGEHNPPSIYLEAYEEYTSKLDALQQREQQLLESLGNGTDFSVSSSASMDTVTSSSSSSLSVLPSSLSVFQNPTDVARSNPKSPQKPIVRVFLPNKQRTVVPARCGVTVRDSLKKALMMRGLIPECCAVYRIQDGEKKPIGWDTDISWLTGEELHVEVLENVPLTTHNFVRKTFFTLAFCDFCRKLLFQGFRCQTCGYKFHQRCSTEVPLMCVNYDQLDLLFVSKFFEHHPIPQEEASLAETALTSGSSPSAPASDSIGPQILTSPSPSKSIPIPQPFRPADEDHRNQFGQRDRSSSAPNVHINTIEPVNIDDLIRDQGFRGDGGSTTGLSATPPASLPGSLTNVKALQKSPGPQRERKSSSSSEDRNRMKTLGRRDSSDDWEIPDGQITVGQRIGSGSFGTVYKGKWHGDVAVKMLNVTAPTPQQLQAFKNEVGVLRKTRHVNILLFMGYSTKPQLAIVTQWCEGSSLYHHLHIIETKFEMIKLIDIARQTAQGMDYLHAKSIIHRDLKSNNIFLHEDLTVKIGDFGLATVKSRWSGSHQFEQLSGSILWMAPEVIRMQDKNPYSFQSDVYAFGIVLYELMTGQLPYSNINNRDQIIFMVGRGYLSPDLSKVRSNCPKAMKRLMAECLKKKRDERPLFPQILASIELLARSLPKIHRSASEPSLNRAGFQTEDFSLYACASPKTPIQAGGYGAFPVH
UniProt Q06187: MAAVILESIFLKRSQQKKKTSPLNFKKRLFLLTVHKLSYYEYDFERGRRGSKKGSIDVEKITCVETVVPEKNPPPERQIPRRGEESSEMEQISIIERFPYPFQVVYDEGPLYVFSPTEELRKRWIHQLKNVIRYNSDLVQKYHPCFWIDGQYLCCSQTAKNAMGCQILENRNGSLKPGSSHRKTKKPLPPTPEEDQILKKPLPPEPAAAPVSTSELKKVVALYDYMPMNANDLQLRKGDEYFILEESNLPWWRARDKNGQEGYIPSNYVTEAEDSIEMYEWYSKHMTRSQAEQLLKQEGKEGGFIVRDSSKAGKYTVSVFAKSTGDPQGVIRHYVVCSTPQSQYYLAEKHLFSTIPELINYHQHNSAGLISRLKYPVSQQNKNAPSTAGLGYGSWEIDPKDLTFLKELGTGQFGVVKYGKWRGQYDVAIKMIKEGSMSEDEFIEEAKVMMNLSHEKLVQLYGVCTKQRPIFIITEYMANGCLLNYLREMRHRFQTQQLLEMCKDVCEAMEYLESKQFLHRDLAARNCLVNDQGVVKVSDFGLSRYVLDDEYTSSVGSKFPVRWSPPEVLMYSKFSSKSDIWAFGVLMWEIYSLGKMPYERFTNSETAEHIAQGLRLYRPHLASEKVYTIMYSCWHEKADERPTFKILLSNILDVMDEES

Measured: number of time points

O=c1oc2c(C3OCCCO3)c(O)ccc2c2c1CNCC2 (10 µM)
0: ALK | ARAF | AURKA | AURKB | AURKC | BLK | BMX | BRAF | BRAF_V600E | BTK

Cc1ccc(NC(=O)Nc2nnc(Sc3ncnc4cc(OCCCN5CCOCC5)ccc34)s2)cc1 (10 µM)
0: ALK | ARAF | AURKA | AURKB | AURKC | BLK | BMX | BRAF | BRAF_V600E | BTK

COc1cc2ncn(-c3cc(OCc4ccccc4C(F)(F)F)c(C(N)=O)s3)c2cc1OC (10 µM)
0: ALK | ARAF | AURKA | AURKB | AURKC | BLK | BMX | BRAF | BRAF_V600E | BTK

COc1cc(Nc2ncc3c(n2)-c2ccc(Cl)cc2C(c2c(F)cccc2OC)=NC3)ccc1C(=O)O [Alisertib] (2.5 µM)
0: ALK | ARAF | AURKA | AURKB | AURKC | BLK | BMX | BRAF | BRAF_V600E | BTK

O=c1cc(-c2ccccc2)oc2c(O)c(O)ccc12 [7,8-Dihydroxyflavone] (10 µM)
0: ALK | ARAF | AURKA | AURKB | AURKC | BLK | BMX | BRAF | BRAF_V600E | BTK

COCCNCCc1cccc(Nc2ncc3c(n2)-c2ccccc2[C@H](c2ccccc2F)C3)c1 [Derazantinib] (2.5 µM)
1: BMX
0: ALK | ARAF | AURKA | AURKB | AURKC | BLK | BRAF | BRAF_V600E | BTK

CCN(CC)CCCCNc1ncc2cc(-c3c(Cl)cccc3Cl)c(NC(=O)NC(C)(C)C)nc2n1 (2.5 µM)
2: BRAF
3: BMX
1: ALK | AURKA | BLK | BTK
0: ARAF | AURKB | AURKC | BRAF_V600E

Nc1ncnc2c1c(-c1cccc(OCc3ccccc3)c1)cn2C1CC(CN2CCCC2)C1 (stereo not given) (2.5 µM)
0: ALK | ARAF | AURKA | AURKB | AURKC | BLK | BMX | BRAF | BRAF_V600E | BTK

Cc1ccc2c(Nc3cccc(OC(F)(F)F)c3)nccc2c1Nc1ncccc1-c1ncnc2[nH]cnc12 (10 µM)
0: ALK | ARAF | AURKA | AURKB | AURKC | BLK | BMX | BRAF | BRAF_V600E | BTK

O=c1oc2ccccc2c(O)c1Cc1c(O)c2ccccc2oc1=O [Dicoumarol] (10 µM)
0: ALK | ARAF | AURKA | AURKB | AURKC | BLK | BMX | BRAF | BRAF_V600E | BTK

CC(=O)N1CCN(c2ccc(OCC3COC(Cn4ccnc4)(c4ccc(Cl)cc4Cl)O3)cc2)CC1 (stereo not given) [Ketoconazole] (2.5 µM)
0: ALK | ARAF | AURKA | AURKB | AURKC | BLK | BMX | BRAF | BRAF_V600E | BTK

c1cc(OCCN2CCCCC2)cc(-c2n[nH]c3ccc(-c4nnc[nH]4)cc23)c1 [CC-401 (hydrochloride)] (10 µM)
0: ALK | ARAF | AURKA | AURKB | AURKC | BLK | BMX | BRAF | BRAF_V600E | BTK

Cc1[nH]c(/C=C2\C(=O)Nc3ccc(S(=O)(=O)Cc4c(Cl)cccc4Cl)cc32)c(C)c1C(=O)N1CCC[C@@H]1CN1CCCC1 (2.5 µM)
0: ALK | ARAF | AURKA | AURKB | AURKC | BLK | BMX | BRAF | BRAF_V600E | BTK

Oc1ccc(-c2nc(-c3ccc(F)cc3)c(-c3ccncc3)[nH]2)cc1 (2.5 µM)
0: ALK | ARAF | AURKA | AURKB | AURKC | BLK | BMX | BRAF | BRAF_V600E | BTK

CCCCOc1c(C(=O)c2c(F)cc(C)cc2F)c[nH]c2nncc1-2 (10 µM)
0: ALK | ARAF | AURKA | AURKB | AURKC | BLK | BMX | BRAF | BRAF_V600E | BTK

CC(C)CC(=O)Nc1n[nH]c2c1CN(C(=O)C1CCN(C)CC1)C2(C)C (2.5 µM)
2: ALK
1: AURKB | BRAF_V600E
3: AURKA
0: ARAF | AURKC | BLK | BMX | BRAF | BTK

Cc1c[nH]c2nccc(Oc3c(F)cc(Nc4cc(Cl)nc(N)n4)cc3F)c12 (10 µM)
0: ALK | ARAF | AURKA | AURKB | AURKC | BLK | BMX | BRAF | BRAF_V600E | BTK

O=c1c(O)c(-c2ccc(O)c(O)c2)oc2cc(O)cc(O)c12 [Quercetin (dihydrate)] (10 µM)
0: ALK | ARAF | AURKA | AURKB | AURKC | BLK | BMX | BRAF | BRAF_V600E | BTK

O=C(c1ccc(-c2ccc(Cl)cc2)o1)N(Cc1ccccn1)c1ccc(N2CCNCC2)cc1 [MK2-IN-1 (hydrochloride)] (10 µM)
0: ALK | ARAF | AURKB | AURKC | BLK | BMX | BRAF | BRAF_V600E | BTK
1: AURKA

CCN(CC)CCCCNc1ncc2cc(-c3cc(OC)cc(OC)c3)c(NC(=O)NC(C)(C)C)nc2n1 (10 µM)
0: ALK | ARAF | AURKA | AURKB | AURKC | BLK | BMX | BRAF | BRAF_V600E | BTK

Nc1ncnc2c1c(-c1ccc(Oc3ccccc3)cc1)cn2C1CCCC1 (2.5 µM)
0: ALK | ARAF | AURKB | AURKC | BLK | BMX | BRAF | BRAF_V600E | BTK
1: AURKA

COc1c(CC=C(C)C)c(O)cc2oc(=O)c(-c3ccc(O)cc3O)cc12 [Glycycoumarin] (10 µM)
0: ALK | ARAF | AURKA | AURKB | AURKC | BLK | BMX | BRAF | BRAF_V600E | BTK
